From patent US20060063707A1, “Compositions for enhancing memory and methods therefor” (Lifelike Biomatic, Inc., priority 2004, published 2006)
For at least one compound, name, drawing or mass did not settle the structure.

How the values were obtained:
[1] = test system: adult mice hippocampal slices; assay: LTP induction in hippocampal slices (EPSP slopes in CA1 after theta-burst stimulation); format: cell-based; conditions: 20 μM CX546 alone
Experimental: Adult mice hippocampal slices were prepared according to standard procedures as described in Dunwiddie and Lynch (J. Physiol. 276:353-367. 1978). Briefly, mice were decapitated following anesthesia, the brains rapidly removed and the hippocampus dissected. Transverse hippocampal slices (400 μm thick) were cut with a McIllwain tissue slicer (Stoelting Co., Wood Dale, Ill.). Slices were pre-incubated for at least 60 min in an artificial cerebrospinal fluid (aCSF) containing (in mM) NaCl (124), KCl (3), KH2PO4 (1.25), MgSO4 (2.5), CaCl2 (3.4), NaHCO3 (26), glucose (10); and L-ascorbate (2) before being placed in a recording chamber. Slices were continuously perfused with aCSF containing no added drug, 20 μM CX546, 2 μM D, L-serine, or a combination of 20 μM CX546 and 2 μM D, L-serine. […] Low frequency stimulation was resumed and responses recorded for at least 30 min.
Slopes of the extracellular postsynaptic potentials (EPSPs) were calculated and expressed as percent of the average values recorded during the 10 min baseline period. Results were averaged and expressed as means±s.e.m.
In particular, slices were prepared as cited above and EPSPs were evoked in CA1 stratum radiatum by stimulation of the Schaffer collateral pathways once every 30 seconds. […] Slopes of EPSPs were calculated and expressed as percent over the average values during the 10 minute baseline. […]

LTP = conditions: agent alone; cited from earlier work

O=C(c1ccc2c(c1)OCCO2)N1CCCCC1 [CX546, 1-(1,4-benzodioxan-6-ylcarbonyl)piperidine]
levels of potentiation (EPSP slope) as compared to control slices [1]: did not modify the levels of potentiation
concentration known to facilitate LTP (LTP): 200 µM
